AC50 data for 62 compounds are collected here from PubChem BioAssay AID493014 (National Center for Advancing Translational Sciences (NCATS), 2011).

This assay is described as follows: qHTS Assay to Find Inhibitors of Chronic Active B-Cell Receptor Signaling. The settings on record: ABC-DLBCL IkBa-CBG/CBR reporter, luminescence ratio (green luciferase fused to IkBa over red control in TMD8 lymphoma cells), 4 h. An outline of the steps: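 TMD8 human ABC-DLBCL cells with doxycycline-inducible IκBα–green luciferase fusion and unfused red luciferase, in 0.5% FBS medium; compounds up to 46 uM, 4 h at 37C. Green/red luminescence ratio, filter-overlap corrected, fitted to concentration-response curves.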
On the technique in general: qHTS replaces the single test concentration by a dilution series.

[1] abbreviates: measured here: CBR red luminescence, cell number.
The mark [2] stands for this setting: measured here: IkBa-CBG green luminescence.

Molecules are shown by their SMILES. The list shows a part of the results. Shown are side measurements of this screen, not its main read-out; they come without a call. Most of these compounds were active or inconclusive in the main read-out, so they are no random draw. Words in brackets tell the shape of the fitted curve; partial curves, single points and poor fits give uncertain potencies.

Turning to `CSc1nc2ccc3nc(NC(=O)c4cccs4)sc3c2s1`, under setting [1], the AC50 – broadly, the concentration giving half of the maximal activity seen – was 22.4 µM [falling, partial curve, poor fit].
Still for that read-out and setting: in the case of `O=C(Nc1cccc(NS(=O)(=O)c2ccc(S(=O)(=O)NC3CC3)cc2)c1)c1ccccn1` it was 35.5 µM [falling, single point]; in that of `COc1ccc(NC(=O)Cn2cccc2)cc1Cl`, 12.6 µM [rising, partial curve, poor fit]; in that of `Cn1ccc2cc(-c3csc(N4CCC(C(N)=O)CC4)n3)ccc21`, 3.66 µM [rising, full curve].
For the compound `CC(=O)c1sc(NC(=O)c2c(F)cccc2F)nc1C`, the AC50 under setting [1] is 6.51 µM [falling, partial curve].
Take `Cc1ccc2nc(N3CCN(C(=O)c4ccco4)CC3)sc2c1`: under setting [1], the AC50 was 1.84 µM [rising, full curve].
As for `CN(C)c1ccc(C(CNC(=O)c2ccccc2)c2c[nH]c3ccccc23)cc1` (stereo not given), under setting [1], the AC50 is 29.1 µM [falling, single point].
For `O=C(CCl)Nc1cccc(S(=O)(=O)NC2=NCCCCC2)c1`, the AC50 under setting [2] was 16.4 µM [falling, partial curve].
Turning to `Cn1ccc(C(=O)Oc2ccc(C(=O)Nc3ccc(F)cc3F)cc2)n1`, the AC50 under setting [1] was 0.891 µM [falling, full curve, poor fit].
`CCn1cc2nc(SCC(=O)Nc3ccc(F)cc3F)n(Cc3ccccc3)c(=O)c2n1`: the AC50 under setting [1] was 8.91 µM [falling, partial curve, poor fit].
Same read-out and setting: in the case of `CC(C)CCNC(=O)C1(O)c2ccccc2NC(=O)N1c1ccc(Cl)cc1` (stereo not given) it was 0.447 µM [rising, full curve].
Regarding `CC(C)(C)c1[nH]nc2c1C(c1ccoc1)C(C#N)=C(N)O2` (stereo not given), the AC50 is 9.2 µM [falling, partial curve, poor fit] under setting [1] and 23.1 µM [rising, partial curve, poor fit] under setting [2].
For `Cc1cccc(C(=O)NC(=S)N2CCc3ccccc3C2)c1`, under setting [1], the AC50 was 25.9 µM [rising, partial curve].
Still for that read-out and setting: under `COc1ccc(CCNC(=O)c2cnc(Cl)c(Cl)c2)cc1` stands 25.1 µM [falling, single point]; under `Cc1cccc(NC(=O)c2ccc(COc3cccc4ccccc34)o2)n1`, 18.4 µM [falling, single point]; under `Cc1cc(NC(=O)/C=C/c2ccco2)ccc1NC(=O)c1ccccc1`, 8.91 µM [falling, partial curve, poor fit].
For `CCOC(=O)c1cc(=O)n2c(nc3ccccc32)[nH]1`, under setting [1], the AC50 is 23.1 µM [falling, partial curve].
In the case of `CCOC(CCn1c(SCC(=O)Nc2cc(C)on2)nc2ccccc2c1=O)OCC`, the AC50 under setting [1] is 35.5 µM [rising, single point].
Same read-out and setting: in the case of `CCN1C(=O)[C@H]2[C@@H](c3ccc(C)cc3)N3C(=O)N(c4cccc(Br)c4)C(=O)[C@@]3(CC(C)C)[C@H]2C1=O` it was 16.4 µM [falling, partial curve, poor fit]; in that of `COc1ccc2c3c([nH]c2c1)C1(NCC3)C(=O)Nc2ccccc21` (stereo not given), 35.5 µM [falling, single point]; in that of `O=C(C1=C(O)C(=O)N(CCN2CCOCC2)C1c1ccccn1)c1cccs1` (stereo not given), 16.4 µM [falling, single point].
Still for that read-out and setting: under `CCOC(=O)c1ccn(-c2nc(-c3ccco3)cc(C(F)(F)F)n2)n1` stands 20.6 µM [falling, partial curve, poor fit].
Turning to `NS(=O)(=O)c1ccc(NC(=O)COC(=O)c2c3c(nc4ccccc24)/C(=C\c2ccc4c(c2)OCO4)CCC3)cc1`, the AC50 under setting [1] is 7.31 µM [rising, partial curve, poor fit].
`Cc1ccc(NC(=O)c2ccc(OC(=O)COc3ccc(Cl)cc3C)cc2)cc1`: the AC50 under setting [1] is 4.11 µM [falling, full curve].
The same measure, in the same setting: under `CCc1ccc(C2=NN(CCC(=O)NC(C)CCc3ccccc3)C(=O)CC2)cc1` (stereo not given) stands 12.6 µM [falling, partial curve, poor fit]; under `Cc1oc2c(O)c(O)ccc2c(=O)c1-c1ccc(Cl)cc1`, 14.1 µM [rising, single point]; under `CCCCCOC(=O)NCC(O)c1ccccc1` (stereo not given), 8.91 µM [falling, partial curve].
The same measure, in the same setting: under `CCOc1ccc(-c2cn3ccccc3n2)cc1[N+](=O)[O-]` stands 29.1 µM [rising, single point]; under `O=C(c1ccccc1)c1c[nH]c(C(=O)NNc2cccc(Cl)n2)c1`, 14.1 µM [falling, single point]; under `CCN(CC(=O)Nc1c(F)cccc1F)C(=O)c1ccc2c(c1)S(=O)(=O)N=C1CCCCCN12`, 16.4 µM [falling, partial curve, poor fit].
The same measure, in the same setting: under `Cc1cc(C(=O)OC(C)C(=O)Nc2nc(-c3ccccc3)cs2)c(C)o1` (stereo not given) stands 7.31 µM [falling, partial curve].
Take `COc1ccc(N(C)S(=O)(=O)c2ccc(Cl)c(C(=O)NCCc3ccc(Cl)cc3)c2)cc1`: the AC50 under setting [1] was 14.1 µM [falling, single point].
On the same count and under the same terms, in the case of `O=[N+]([O-])/C=C\c1ccc(N2CCCC2)c(F)c1` it was 31.6 µM [rising, single point]; in that of `N#CCCN1C(=O)C2(OCCO2)c2ccccc21`, 0.1 µM [rising, full curve, poor fit]; in that of `O=C(Nc1ccc2c(c1)nc1n2CCSC1)c1ccccc1`, 6.51 µM [falling, partial curve].
On the same count and under the same terms, in the case of `O=C(NC(=S)Nc1cc([N+](=O)[O-])ccc1O)c1ccc2c(c1)OCO2` it was 1.58 µM [falling, full curve]; in that of `Cc1cc(C(=O)Nc2cnn(Cc3ccc(Cl)cc3Cl)c2)no1`, 11.2 µM [falling, partial curve, poor fit].
`CCN(CC)S(=O)(=O)c1ccc(N2CCc3ccccc3C2)nc1`: the AC50 under setting [1] is 8.91 µM [falling, partial curve, poor fit].
On the same count and under the same terms, in the case of `O=C(N/N=C/c1ccc([N+](=O)[O-])o1)c1ccc(O)cc1` it was 2.59 µM [falling, full curve].
Same read-out and setting: under `O=C(COC(=O)CN1C(=O)C2CCCCC2C1=O)Nc1cc(S(=O)(=O)N2CCOCC2)ccc1Cl` (stereo not given) stands 18.4 µM [rising, partial curve, poor fit].
Turning to `Cn1nc(-c2ccc(Cl)cc2)nc2c(=O)n(C)c(=O)nc1-2`, the AC50 runs as follows: under setting [1], 0.708 µM [falling, full curve]; under setting [2], 35.5 µM [rising, partial curve, poor fit].
With `Cc1cc(O)c2c(CN3CCN(Cc4ccccc4)CC3)cc(=O)oc2c1`, under setting [1], the AC50 was 11.2 µM [falling, single point].
The same measure, in the same setting: under `COc1ccccc1CN1CCN(C(=O)c2ccco2)CC1` stands 35.5 µM [rising, single point]; under `C/C(=N\Nc1ccc(C(=O)O)cc1)c1ccc(S(=O)(=O)NCc2ccco2)cc1`, 3.16 µM [falling, full curve].
Still for that read-out and setting: in the case of `Cc1cc(C)cc(OCc2ccc(C(=O)NN)o2)c1` it was 1.78 µM [falling, full curve].
As to `Cn1nc(C(=O)NCc2ccc(F)cc2)c2ccccc2c1=O`, the AC50 under setting [1] is 7.94 µM [rising, partial curve, poor fit].
Turning to `O=C(c1ccncc1)N(c1ccc2oc3c(c2c1)CCCC3)S(=O)(=O)c1ccc(F)cc1`, the AC50 under setting [2] is 29.1 µM [rising, partial curve, poor fit].
As to `Cc1cc(OCC(=O)N(C)Cc2ccccc2)cc(C)c1Cl`, the AC50 under setting [1] was 11.2 µM [rising, partial curve].
Still for that read-out and setting: in the case of `O=C(Cc1ccc([N+](=O)[O-])cc1)Nc1ccon1` it was 0.112 µM [rising, full curve]; in that of `O=C(O)CCN1C(=O)/C(=C\c2ccc(OCc3ccccc3)c(OCc3ccccc3)c2)SC1=S`, 7.94 µM [falling, partial curve, poor fit].
For the compound `Cn1nnc2c(NCc3ccccc3)ncnc21`, the AC50 under setting [1] was 11.2 µM [falling, single point].
On to `CN(c1cccc(NC(=O)CN(c2ccc(Cl)c(Cl)c2)S(=O)(=O)c2ccccc2)c1)S(C)(=O)=O`, for which the AC50 by setting is: under setting [1], 10.3 µM [falling, single point]; under setting [2], 20.6 µM [rising, partial curve, poor fit].
Consider `Cn1c(=O)c2[nH]c(N3CCN(c4ccccn4)CC3)nc2n(C)c1=O`, for which the AC50 under setting [1] is 0.631 µM [falling, full curve, poor fit].
In the case of `Cc1ccccc1Nc1nc(-c2sc(NC(=O)c3ccc([N+](=O)[O-])cc3)nc2C)cs1`, under setting [1], the AC50 is 11.2 µM [falling, partial curve, poor fit].
Regarding `COc1ccc(Cl)cc1NC(=O)C(=O)N/N=C/c1cc(C)n(-c2ccc(C)cc2)c1C`, under setting [1], the AC50 is 5.8 µM [falling, full curve].
Turning to `O=C(NCC1CCCO1)c1ccc(Br)c(S(=O)(=O)N2CCOCC2)c1` (stereo not given), the AC50 under setting [1] is 2.59 µM [rising, single point].
On to `O=C(Nc1ccc(Br)cc1)c1cc(-c2ccncc2)nc2ccccc12`, for which, under setting [2], the AC50 was 32.6 µM [falling, partial curve, poor fit].
`O=S(=O)(c1cccc2cccnc12)N1CCN(c2ccccn2)CC1`: the AC50 under setting [1] is 17.8 µM [falling, partial curve, poor fit].
Same read-out and setting: in the case of `CCC(C)(C)n1nnnc1C(c1cc2cccc(C)c2[nH]c1=O)N1CCN(C(=O)c2ccco2)CC1` (stereo not given) it was 35.5 µM [rising, partial curve, poor fit]; in that of `O=C(NCCN1CCOCC1)c1cc2ccccc2[nH]1`, 16.4 µM [rising, partial curve, poor fit]; in that of `Cc1nn(-c2ccccc2)c(C)c1C(=O)OC(C)C(=O)NC1CCCCC1` (stereo not given), 0.0517 µM [rising, full curve, poor fit].
Same read-out and setting: under `COc1ccc(N/N=C(\C#N)C(=N)SCc2ccccc2)cc1` stands 2.51 µM [falling, partial curve].
